{"source": "PubChem BioAssay AID1347075", "about": "(National Center for Advancing Translational Sciences (NCATS), 2019)", "note": "Hit rate of the full screen: of about 400,000 compounds, about 5,500 (1.4%) were called active. The shares of active, inactive and inconclusive entries below differ from those in the screen. Calls come from the whole dose curve; as a rule, active = well fitted cell-killing curve with a large enough effect; inconclusive = small, poorly fitted or top-dose-only effect, or effect the other way; inactive = flat fitted curve, though single readings scatter. Where the call is inconclusive, the potency comes from a doubtful curve fit. % is set by controls: 0 for no effect and ±100 for the full control effect; potency is the fitted concentration of half-maximal effect.", "data": [{"assay": "qHTS assay for MDR1-selective chemotherapeutics: Primary screen using the parental adenocarcinoma cell KB-3-1; note: nearly all actives have a fitted effect of over 60% in size", "conditions": "KB-3-1 viability, CellTiter-Glo ATP luminescence, 72 h; activity change, negative = cytotoxic: at 46.1 µM (top of the series)", "outline": "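Cytotoxicity measured as CellTiter-Glo luminescence after 72 h at 37 C. Compound titrations were pinned onto drug-naive KB-3-1 parental adenocarcinoma cells grown in DMEM with 10% FBS, and normalized data fitted to concentration-response curves.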", "values": [{"compound": "Cc1ccc(C)c(OCCC(=O)Nc2cccc(S(=O)(=O)NC3=NCCCCC3)c2)c1", "Potency": "inactive"}, {"compound": "CCNc1c2c3c(cccc3n(C)c1=O)C(=O)c1ccccc1-2", "Potency": "inconclusive: 20.6 µM [cytotoxic, single point]"}, {"compound": "O=C(/C=C/c1ccc2c(c1)OCO2)Nc1ccc(Cl)cn1", "Potency": "inconclusive: 29.1 µM [cytotoxic, single point]"}, {"compound": "CO[C@@H]1CN(C)C(=O)c2cc(NC(=O)NC3CCCCC3)ccc2OC[C@@H](C)N(CCc2ccccc2)C[C@H]1C", "Potency": "inconclusive: 20.6 µM [cytotoxic, single point]"}, {"compound": "COCCn1c(SCC(=O)N2CCc3ccccc3C2)nc2cc(Cl)ccc2c1=O", "Potency": "inconclusive: 29.1 µM [cytotoxic, single point]"}, {"compound": "CCOc1ccc(NC(=O)c2c(NCc3cccs3)sc3c2CCC(C)C3)cc1", "note": "(stereo not given)", "Potency": "inactive"}, {"compound": "CC(C)Sc1nc2c(cnn2-c2ccc(Cl)cc2)c(=O)[nH]1", "Potency": "inactive"}, {"compound": "Cc1cc(NC(=O)c2ccc(N3CCCC3)c([N+](=O)[O-])c2)no1", "Potency": "inconclusive: 29.1 µM [rising, partial curve, poor fit]"}, {"compound": "Cc1ccccc1-c1cnc(C(O)c2c(C)cccc2C)[nH]1", "note": "(stereo not given)", "Potency": "inconclusive: 29.1 µM [cytotoxic, single point]"}, {"compound": "COc1cc(NC(=O)c2ccccc2F)c(OC)cc1NC(=O)CN1CCCCC1", "Potency": "inactive"}, {"compound": "CCCN(CC(=O)Nc1ccccc1OC)C(=O)c1ccc2[nH]c3c(c2c1)CC(C)CC3", "note": "(stereo not given)", "Potency": "inconclusive: 29.1 µM [cytotoxic, single point]"}, {"compound": "CC(C)Nc1ncnc2c1cnn2-c1ccccc1", "Potency": "inconclusive: 20.6 µM [cytotoxic, single point]"}, {"compound": "COc1ccccc1NC(=O)NC1CC(=O)N(c2ccc3c(c2)OCCO3)C1", "note": "(stereo not given)", "Potency": "inconclusive: 29.1 µM [rising, single point]"}, {"compound": "COc1ccc(-c2nc(CSCC(=O)NCCC(C)C)c(C)o2)cc1OC", "Potency": "inactive"}, {"compound": "CCOC(=O)c1cnc(SCC(=O)Nc2cc(OC)cc(OC)c2)nc1N", "Potency": "inconclusive: 8.2 µM [cytotoxic, partial curve]"}, {"compound": "CC1(C(=O)NS(=O)(=O)c2cccs2)CCN1C(=O)Cc1ccccc1", "note": "(stereo not given)", "Potency": "inactive"}, {"compound": "O=C(Nc1ccc(-c2cn3c(n2)SCC3)cc1)c1ccc2c(c1)OCO2", "Potency": "inconclusive: 16.4 µM [cytotoxic, partial curve, poor fit]"}, {"compound": "COc1ccc(OC)c(-n2c(SC)nnc2-c2c[nH]c3ccccc23)c1", "Potency": "inconclusive: 29.1 µM [cytotoxic, single point]"}, {"compound": "COC(=O)[C@H](Cc1ccccc1)NC(=O)NC(C)CCc1ccccc1", "note": "(stereo not given in full)", "Potency": "inactive"}, {"compound": "Cc1cc(Nc2cccc(Cl)c2)nc2ccc(NC(=O)COc3ccc(Cl)cc3)cc12", "Potency": "inactive"}, {"compound": "COc1ccc(C(=O)N(C)CCCC2CCCC2)cc1OC1CCN(C(C)C)CC1", "Potency": "inconclusive: 29.1 µM [cytotoxic, single point]"}, {"compound": "COc1ccc(OCC(=O)Nc2c(C(=O)N(CCN(C)C)Cc3ccco3)oc3ccccc23)cc1", "Potency": "inconclusive: 18.4 µM [cytotoxic, single point]"}, {"compound": "C=C1C=C(C(F)F)n2ncc(C(=O)NCc3ccc(F)cc3)c2N1", "Potency": "inactive"}, {"compound": "CC1c2ccccc2N(NC(=O)Cc2ccccc2)C1C", "note": "(stereo not given)", "Potency": "inactive"}, {"compound": "Cc1c(N2C(=O)CSC2=S)c(=O)n(-c2ccccc2)n1C", "Potency": "inconclusive: 14.6 µM [cytotoxic, partial curve]"}, {"compound": "Cc1ccc2c(c1)CCCN2C(=O)c1ccco1", "Potency": "inconclusive: 32.6 µM [rising, partial curve, poor fit]"}, {"compound": "CCc1cccc2c(N=O)c(O)[nH]c12", "Potency": "inconclusive: 20.6 µM [cytotoxic, single point]"}, {"compound": "CCCCCCN1C[C@@H](O)[C@H](n2cc(C3CC3)nn2)C[C@@H]1c1ccc(OC)cc1", "Potency": "inactive"}, {"compound": "O=C(NC(=S)Nc1ccccc1[N+](=O)[O-])c1ccccc1Cl", "Potency": "active: 13 µM"}, {"compound": "O=C(NNC(=O)c1ccccc1OCc1ccccc1Cl)c1csc(N2CCOCC2)n1", "Potency": "inconclusive: 29.1 µM [cytotoxic, single point]"}, {"compound": "CCN1CCc2c(sc(NC(=O)c3ccc(S(=O)(=O)N(CC)c4ccccc4)cc3)c2C(N)=O)C1", "Potency": "inconclusive: 14.6 µM [cytotoxic, single point]"}, {"compound": "O=C(N/C(=C\\c1ccco1)C(=O)N1CCCC(CO)C1)c1ccccc1", "note": "(stereo not given)", "activity change, negative = cytotoxic": "inconclusive: 18.3%"}, {"compound": "Cc1cccc(OCC(=O)NCC(=O)n2nc(C)cc2C)c1", "Potency": "inconclusive: 29.1 µM [rising, partial curve, poor fit]"}, {"compound": "CCOC(=O)COc1ccc(CC)cc1C(=O)c1ccn2nc(-c3ccc(Cl)cc3)cc2n1", "Potency": "inactive"}, {"compound": "O=c1cc(-c2ccccc2)[nH]n1-c1ccc([N+](=O)[O-])cc1", "Potency": "inconclusive: 18.4 µM [cytotoxic, single point]"}, {"compound": "COc1ccccc1-c1nnc2sc(COc3ccc(Cl)cc3Cl)nn12", "Potency": "inconclusive: 29.1 µM [cytotoxic, single point]"}, {"compound": "Cc1nn2c3ccccc3n(CCN3CCCCC3)c2nc1=O", "Potency": "inactive"}, {"compound": "COC(=O)c1sc2cccc(F)c2c1S(=O)(=O)NCc1ccc(Cl)cc1", "Potency": "inactive"}, {"compound": "O=C(Nc1cc(Cl)ccc1-n1cncn1)c1ccc([N+](=O)[O-])o1", "Potency": "active: 13 µM"}, {"compound": "O=C(CN1C(=O)NC2(CCCCCCC2)C1=O)Nc1ccc(Cl)cc1", "Potency": "inconclusive: 29.1 µM [cytotoxic, single point]"}, {"compound": "C#CCOCCOCCOCCNc1nc(N2CCN(C(=O)[C@H]([C@@H](C)CC)n3cc([C@@H](N)CC(C)C)nn3)CC2)nc(N2CCN(C(=O)[C@H](CCCCN)n3cc([C@@H](N)C(C)CC)nn3)CC2)n1", "note": "(stereo not given in full)", "Potency": "inconclusive: 11.6 µM [rising, partial curve]"}, {"compound": "COc1ccc(C2c3c4c(n(C)c3CCN2C)CCN(C)C4c2ccc(OC)cc2)cc1", "note": "(stereo not given)", "Potency": "inactive"}, {"compound": "COC(=O)[C@H](CC(C)C)N1Cc2cc(OC)cc(OC)c2-c2ccccc2S1(=O)=O", "Potency": "inconclusive: 0.0082 µM [rising, full curve]"}, {"compound": "COc1c(Cl)cc(C(=O)Nc2cccnc2)cc1Cl", "Potency": "inactive"}, {"compound": "O=[N+]([O-])c1ccc(C[n+]2cccc3c4ccccc4ccc32)cc1", "Potency": "inconclusive: 13 µM [cytotoxic, partial curve, poor fit]"}]}]}
